From PubChem BioAssay AID1671190 (National Center for Advancing Translational Sciences (NCATS), 2021)
The campaign covered roughly 580,000 compounds. About 6,100 (1.1%) were called active. Inconclusive means that the source gave no clear call. Such entries were picked first, then a sample of the others. Calls come from the whole dose curve; as a rule, active = well fitted inhibition curve with a large enough effect; inconclusive = small, poorly fitted or top-dose-only effect, or another doubt; inactive = no such curve, though single readings can be large or run the other way. Potencies of inconclusive entries are doubtful fits and often do not repeat.

Protein sequences, listed by entry. Tags and fused reporters are not part of them. Lines headed by an entry give the natural chain unless they say otherwise; changes in a name come on top.
UniProt P18054: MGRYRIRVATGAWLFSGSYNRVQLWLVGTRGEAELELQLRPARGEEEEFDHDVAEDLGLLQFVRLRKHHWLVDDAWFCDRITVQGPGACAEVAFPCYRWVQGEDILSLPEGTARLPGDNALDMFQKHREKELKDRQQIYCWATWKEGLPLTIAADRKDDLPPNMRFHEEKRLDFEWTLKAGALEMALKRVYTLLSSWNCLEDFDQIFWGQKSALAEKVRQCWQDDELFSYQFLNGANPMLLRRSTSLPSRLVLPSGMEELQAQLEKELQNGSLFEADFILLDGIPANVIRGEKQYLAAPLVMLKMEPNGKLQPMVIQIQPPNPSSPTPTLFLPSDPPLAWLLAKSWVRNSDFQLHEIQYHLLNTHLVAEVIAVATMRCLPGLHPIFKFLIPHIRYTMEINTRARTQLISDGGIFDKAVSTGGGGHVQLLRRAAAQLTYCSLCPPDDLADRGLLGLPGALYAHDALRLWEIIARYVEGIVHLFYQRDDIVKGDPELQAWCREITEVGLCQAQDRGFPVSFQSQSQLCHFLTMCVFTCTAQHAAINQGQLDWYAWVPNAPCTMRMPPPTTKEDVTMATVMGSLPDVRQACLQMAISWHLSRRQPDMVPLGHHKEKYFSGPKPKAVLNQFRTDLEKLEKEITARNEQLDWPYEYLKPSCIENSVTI

biological target: Polyunsaturated fatty acid lipoxygenase ALOX12 (Homo sapiens) (UniProt P18054); test: Primary qHTS assay for inhibitors of human arachidonate 12S-lipoxygenase (ALOX12): Round 2; conditions: purified 12hLO, xylenol orange hydroperoxide absorbance; series mostly up to 108 µM
How it was run: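 Hydroperoxide product was detected by ferrous iron/xylenol orange as the 573 to 405 nm absorbance ratio. Arachidonic acid at 40 uM (final) was turned over for 30 min at room temperature by 150 nM human 12hLO, pH 7.0 Hepes buffer, after 15 min compound preincubation.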
Potency is the fitted concentration of half-maximal effect.

Row | SMILES | Potency
1 | Cc1ccc2nc(C)c(C(=O)O)cc2c1 | inconclusive: 0.282 µM [inhibitor, full curve, poor fit]
2 | Cc1cccc(-c2nc3cc(NC(=O)c4cccc([N+](=O)[O-])c4C)ccc3o2)c1 | inconclusive: 126 µM [inhibitor, single point]
3 | N#Cc1c(-c2ccccc2)cc(-c2ccc(Cl)cc2)c(C#N)c1N | inconclusive: 50.1 µM [inhibitor, single point]
4 | Cc1cnccc1CN(C)Cc1cc2n(n1)CCNC2 | inconclusive: 5.01 µM [inhibitor, full curve]
5 | COc1ccc(COC(=O)C2=C(C)NC(=O)NC2c2cc(Br)c(O)c(OC)c2)cc1 (stereo unspecified) | inconclusive: 11.2 µM [inhibitor, partial curve, poor fit]
6 | Cc1cc(C(C)(C)C)cc(C)c1CS(=O)Cc1ccc(F)cc1 (stereo unspecified) | inconclusive: 112 µM [inhibitor, single point]
7 | NCC1CCCN(Cc2ccc(-c3nc(-c4cccnc4)cc(=O)[nH]3)cc2)C1 (stereo unspecified) | inconclusive: 8.91 µM [inhibitor, full curve, poor fit]
8 | NC(=O)C1(Nc2ccccc2)CCCC1 | inactive
9 | O=C(CCc1c[nH]c2ccccc12)Nc1cccc(OC(F)F)c1 | inconclusive: 56.2 µM [inhibitor, partial curve, poor fit]
10 | COc1ccc(-c2nc(C)c(CCNS(=O)(=O)c3ccc(F)cc3)s2)cc1OC | inconclusive: 89.1 µM [inhibitor, partial curve, poor fit]
11 | O=C(NCCc1cccnc1)c1ccc(-c2nnc3ccc(NC(=O)C4CCC4)cn23)cc1 | inactive
12 | Nc1ncnc2nc(-c3ccc(N4CCOCC4)nc3)cc(-c3cccc(Br)c3)c12 | inconclusive: 3.43 µM [inhibitor, partial curve, poor fit]
13 | O=C(NCCc1ccccc1)N1CCC(Oc2ncccc2C(=O)N2CCOCC2)C1 (stereo unspecified) | inactive
14 | N#Cc1cc2c(nc1N1CCN(C(C(=O)O)c3c[nH]c4cc(Cl)ccc34)CC1)CCCC2 (stereo unspecified) | inconclusive: 44.7 µM [inhibitor, partial curve, poor fit]
15 | Cc1sc(NC(=O)c2ccc(F)cc2)c(CN2CCCCCC2)c1C | inconclusive: 50.1 µM [inhibitor, partial curve, poor fit]
16 | Cc1ccccc1CS(=O)(=O)c1cnc2ccccc2n1 | inactive
17 | COc1cc(=O)[nH]c(SCc2c(F)c(F)c(F)c(F)c2F)n1 | inconclusive: 4.47 µM [inhibitor, full curve, poor fit]
18 | O=C1c2cccnc2C(=O)N1Cc1ccc(S(=O)(=O)NCc2ccco2)s1 | inconclusive: 22.4 µM [inhibitor, partial curve, poor fit]
19 | COc1ccc2[nH]cc(/C=N/NS(=O)(=O)c3ccc(C)cc3)c2c1 | inconclusive: 79.4 µM [inhibitor, partial curve, poor fit]
20 | CC(C)C[C@@H](NC(=O)C1=C[C@@H](NC(=O)c2cccnc2)[C@@H](O)[C@H](O)C1)C(N)=O | inconclusive: 5.01 µM [inhibitor, partial curve, poor fit]
21 | Cc1ccccc1Cn1nc(-c2ccc(C)c(S(=O)(=O)N3CCCCC3)c2)ccc1=O | inconclusive: 2.24 µM [inhibitor, full curve, poor fit]
22 | N#Cc1ccc(COc2ccccc2C(=O)Nc2ccccc2)cc1 | inconclusive: 7.08 µM [inhibitor, full curve, poor fit]

Row | SMILES | Potency
23 | O=C(C[C@H]1C[C@H](C(=O)N2CCOCC2)[C@@]2(CCC3CCCC3)c3[nH]c4cc(-c5ccco5)ccc4c3CCN2C1=O)NCc1ccco1 | inconclusive: 56.2 µM [inhibitor, partial curve, poor fit]
24 | COCCCNCCCCOc1c(Cl)cc(C)cc1Br | inconclusive: 0.447 µM [inhibitor, full curve, poor fit]
25 | O=C1NCCOCCN(C(=O)Cc2cccc(F)c2)[C@H]2CCC[C@@H]12 | inactive
26 | Cc1ccccc1C1CC(=O)Oc2c1c(=O)n(C)c1ccccc21 (stereo unspecified) | inconclusive: 100 µM [inhibitor, single point]
27 | CC(C)C(Sc1nnc(-c2ccccc2)o1)C(=O)NCc1cccnc1 (stereo unspecified) | inactive
28 | CCc1ccc2c(CN(C)CCOc3cccc(C)c3)cc(=O)oc2c1 | inconclusive: 50.1 µM [inhibitor, partial curve, poor fit]
29 | CC(=O)NCCc1nc2cc(NC(=O)c3ccc(Cl)cc3)ccc2n1C | inconclusive: 0.282 µM [inhibitor, full curve, poor fit]
30 | C[C@]12C=CC(=O)C=C1CC[C@@H]1C2=CC[C@]2(C)[C@@H](C(=O)CN3CCN(c4cc(N5CCCC5)nc(N5CCCC5)n4)CC3)CC[C@@H]12 | inactive
31 | CCCCNC(=O)CN1C(=O)c2c(c3ccccc3n2C)C1c1ccc(OC)cc1 (stereo unspecified) | inconclusive: 56.2 µM [inhibitor, partial curve, poor fit]
32 | CCS(=O)(=O)N1CCC2(CC1)CN(C1CCC1)CC2COC (stereo unspecified) | inactive
33 | CN(C)C(=O)c1ccc(-c2nccc(NCc3ccccc3)n2)cc1 | active: 44.7 µM
34 | Cc1cc(OCc2cc(C(=O)N(C)Cc3nonc3C)no2)cc(C)c1Cl | inactive
35 | Cc1ccc2oc(-c3cccc(NC(=O)c4ccc(N5CCC(C)CC5)c([N+](=O)[O-])c4)c3)nc2c1 | inconclusive: 158 µM [inhibitor, partial curve, poor fit]
36 | CC1CCc2c(sc(NC(=O)c3cccs3)c2C(=O)O)C1 (stereo unspecified) | inconclusive: 50.1 µM [inhibitor, partial curve, poor fit]
37 | COc1ccc(CC(=O)N2CCC(c3n[nH]c(=O)n3-c3ccc(C)cc3)CC2)cc1 | inconclusive: 31.6 µM [inhibitor, partial curve]
38 | Cc1nc(NC2CC2)sc1C(=O)NCc1ccncc1 | inactive
39 | COc1cc2c(cc1OC)CN(C(=O)CCNS(=O)(=O)c1ccc(Br)cc1)CC2 | inconclusive: 100 µM [inhibitor, single point]
40 | Cn1c(=O)c2c(ncn2Cc2csc(C(C)(C)C)n2)n(C)c1=O | inactive
41 | CCc1cccc(C)c1NC(=O)c1cc(S(=O)(=O)N2CCC3(CC2)OCCO3)ccc1F | inactive
42 | Cc1oc(-c2ccc(Cl)cc2)nc1CN1CCCC(C(=O)NCCc2ccccc2)C1 (stereo unspecified) | inconclusive: 39.8 µM [inhibitor, partial curve, poor fit]
43 | CC(C)(C)OC(=O)NN=C(c1ccc(O)cc1)c1ccc(O)cc1 | inconclusive: 126 µM [inhibitor, partial curve, poor fit]
44 | COc1ccc(C(c2nnnn2CC2CCCO2)N2CCN(c3ccc(F)cc3)CC2)cc1 (stereo unspecified) | inconclusive: 31.6 µM [inhibitor, partial curve, poor fit]

3 records drawn at random from those above, as already listed:
Row | SMILES | Potency
42 | Cc1oc(-c2ccc(Cl)cc2)nc1CN1CCCC(C(=O)NCCc2ccccc2)C1 (stereo unspecified) | inconclusive: 39.8 µM [inhibitor, partial curve, poor fit]
30 | C[C@]12C=CC(=O)C=C1CC[C@@H]1C2=CC[C@]2(C)[C@@H](C(=O)CN3CCN(c4cc(N5CCCC5)nc(N5CCCC5)n4)CC3)CC[C@@H]12 | inactive
37 | COc1ccc(CC(=O)N2CCC(c3n[nH]c(=O)n3-c3ccc(C)cc3)CC2)cc1 | inconclusive: 31.6 µM [inhibitor, partial curve]

Additional results

Row | SMILES | Potency
45 | O=C1CCN(Cc2ccc(Br)cc2)CCN1[C@H](CO)c1ccccc1 | inactive
46 | CCC(C(=O)Nc1nccs1)c1ccccc1 (stereo unspecified) | inactive
47 | CC(C)(C)c1cn(-c2ccccc2)c(=S)[nH]1 | inconclusive: 44.7 µM [inhibitor, partial curve, poor fit]
48 | O=C1N[C@@H]2CCN(S(=O)(=O)c3ccc(Cl)cc3)[C@@H]2C(=O)N1c1ccc(Oc2ccccc2)cc1 | inconclusive: 39.8 µM [inhibitor, partial curve]
49 | O=C(NC(=S)Nc1cc(Cl)ccc1O)c1cccc(Br)c1 | inactive
50 | CSc1ccc(CN2CCC(C)(Oc3cccc(Cl)c3)C2)cc1 (stereo unspecified) | inconclusive: 0.398 µM [inhibitor, full curve, poor fit]
51 | c1ccc(-n2nnnc2C2(NC3CCCCC3)CCCC2)cc1 | inactive
52 | Cc1cc2c(c(SCC(=O)Nc3ccc(F)cc3)n1)C(=O)OC2 | inactive
53 | CC[C@H]1CN(S(=O)(=O)c2c(C)noc2C)CC[C@H]1CC(=O)NCc1cccc2ccccc12 | inactive
54 | COC(=O)CCCNC(=O)c1ccc(OS(=O)(=O)c2cc([N+](=O)[O-])ccc2C)cc1 | inconclusive: 79.4 µM [inhibitor, partial curve, poor fit]
55 | CCn1ncc(NC(=S)Nc2ccc(OC)c(OC)c2)c1C(N)=O | inconclusive: 89.1 µM [inhibitor, partial curve, poor fit]
56 | COc1ccc(C(=O)NC(=S)Nc2cccc3cc(O)ccc23)cc1OC | active: 10 µM
57 | COc1nc(OC)nc(N2CCC(C(=O)NCc3cccs3)CC2)n1 | inactive
58 | COc1ccc(OC)c(C(=O)CN2C(=O)N(c3ccc(C)cc3)S(=O)(=O)c3ccccc32)c1 | inactive
59 | CCOc1ccc(NC(=O)Nc2c(NC3CCCC3)c3ccccc3oc2=O)cc1 | inconclusive: 50.1 µM [inhibitor, partial curve, poor fit]
60 | O=C(CCCN1C(=O)/C(=C/c2ccccc2Cl)SC1=S)NNC(=O)c1ccccc1 | inactive
61 | Cc1[nH]c2ccccc2c1C(=O)C(=O)NC1(C)CCS(=O)(=O)C1 (stereo unspecified) | inconclusive: 2.24 µM [inhibitor, single point]
62 | COC(=O)c1c(-c2cccs2)csc1NC(=O)c1ccc(C)cc1 | inactive
63 | CC(C)CCC(CCNC1CCC(C)CC1)C1CCOC(C)(C)C1 (stereo unspecified) | inconclusive: 0.562 µM [inhibitor, full curve, poor fit]
64 | O=C(Cn1c(-c2cccs2)cc2ccccc21)N1CCN(c2ccc(F)cc2)CC1 | inactive
65 | CCN(CC)C(=O)C1=C(C)N(Cc2ccc(C(C)(C)C)cc2)C(=O)C(CC(=O)NC2CCCC2)C1 (stereo unspecified) | inconclusive: 89.1 µM [inhibitor, partial curve, poor fit]
66 | COc1ccc(-c2cc(NC=O)c3ncc(-c4ccc(C(C)=O)cc4)n3c2)cn1 | inconclusive: 50.1 µM [inhibitor, partial curve, poor fit]
